# Reference: the supplement of paper PMC4635364
# Counter-ions that a name gives are not always drawn. The list shows a part of the results. Single values are uncertain here, since repeats match poorly.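 ReNCell VM, a human fetal ventral-midbrain neural progenitor line, was differentiated without mitogens. Blinded raters scored images stained for doublecortin (early neurons) or tyrosine hydroxylase (dopaminergic neurons) against untreated wells (0 = no change). Scores were averaged across repeats and both raters, and compounds averaging 2 or more were selected as hits for retesting.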
# Tested on: ReNCell VM
# Assay: dopaminergic neuron differentiation score (TH+ cell fraction vs untreated, manual image score) (score (0 to 3)); higher = more TH+ dopaminergic neuron differentiation
# Details: library: Prestwick; 2 uM; 4 weeks; BDNF 10 ng/ml + GDNF 10 ng/ml
row,SMILES,dopaminergic neuron differentiation score
1,CCOC(=O)c1ccc(N)cc1 [Benzocaine],inactive: 0
2,COc1ncnc(NS(=O)(=O)c2ccc(N)cc2)c1OC [Sulfadoxine],inactive: 0
3,CC1(C)O[C@@H]2C[C@H]3[C@@H]4C[C@H](F)C5=CC(=O)C=C[C@]5(C)[C@@]4(F)[C@@H](O)C[C@]3(C)[C@]2(C(=O)CO)O1 [Fluocinolone acetonide],inactive: 0
4,CO/N=C(\C(=O)N[C@@H]1C(=O)N2C(C(=O)O)=C(COC(C)=O)CS[C@H]12)c1csc(N)n1 [Cefotaxime sodium salt],active: 2
5,Cc1c(N(C)CS(=O)(=O)O)c(=O)n(-c2ccccc2)n1C [Dipyrone],inactive: 0
6,CC(=O)[C@H]1CC[C@H]2[C@@H]3CC=C4C[C@@H](O)CC[C@]4(C)[C@H]3CC[C@]12C [Pregnenolone],inactive: 0

# Copied from the list.
# dopaminergic neuron differentiation score with COc1ncnc(NS(=O)(=O)c2ccc(N)cc2)c1OC [Sulfadoxine] reads inactive: 0
# dopaminergic neuron differentiation score with CO/N=C(\C(=O)N[C@@H]1C(=O)N2C(C(=O)O)=C(COC(C)=O)CS[C@H]12)c1csc(N)n1 [Cefotaxime sodium salt] reads active: 2

# Same assay, conditions: library: Spectrum; 2 uM; 4 weeks; BDNF 10 ng/ml + GDNF 10 ng/ml
row,SMILES,dopaminergic neuron differentiation score
1,Nc1ccc(S(=O)(=O)Nc2nccs2)cc1,inactive: 0
2,CC(C)c1c(C(=O)Nc2ccccc2)c(-c2ccccc2)c(-c2ccc(F)cc2)n1CC[C@@H](O)C[C@@H](O)CC(=O)O,inactive: 0
3,O=NN(CCCl)C(=O)NCCCl,inactive: 0
4,NC(CO)C(=O)NNCc1ccc(O)c(O)c1O (stereo not given),inactive: 0
5,COc1ccc2c(c1)c(CC(=O)O)c(C)n2C(=O)c1ccc(Cl)cc1,inactive: 0
6,CO[C@@]1(NC(=O)C2SC(=C(C(N)=O)C(=O)O)S2)C(=O)N2C(C(=O)O)=C(CSc3nnnn3C)CS[C@@H]21 (stereo not given in full),inactive: 0
7,CCN1CCN(c2cc3c(cc2F)c(=O)c(C(=O)O)cn3C2CC2)CC1,inactive: 0
8,[O-][n+]1cccc(CO)c1,inactive: 0
9,NCC[C@H](O)C(=O)N[C@@H]1C[C@H](N)[C@@H](O[C@H]2O[C@H](CN)[C@@H](O)[C@H](O)[C@H]2O)[C@H](O)[C@H]1O[C@H]1O[C@H](CO)[C@@H](O)[C@H](N)[C@H]1O,inactive: 1
10,O=c1c(O)c(-c2ccc(O)c(O)c2)oc2cc(O)cc(O)c12,inactive: 0
11,O=C1N=C(O)NC1(c1ccccc1)c1ccccc1,inactive: 0
12,Cc1c(S(=O)(=O)O)oc2c1C(=O)C(=O)c1c-2ccc2c1CCCC2(C)C,inactive: 0
13,CC[C@H](C)C(=O)O[C@H]1C[C@H](O)C=C2C=C[C@H](C)[C@H](CC[C@@H](O)C[C@@H](O)CC(=O)O)[C@H]21,active: 2
14,NCCCC(O)(P(=O)(O)O)P(=O)(O)O,inactive: 1
15,CO[C@@]1(NC(=O)CSCC#N)C(=O)N2C(C(=O)O)=C(CSc3nnnn3C)CS[C@@H]21,inactive: 0
16,CC(C)[N+]1(C)[C@@H]2CC[C@H]1C[C@@H](OC(=O)C(CO)c1ccccc1)C2 (stereo not given in full),inactive: 0
17,COc1ccc2c(c1)OCC(Cc1ccc(O)c(OC)c1)C2=O (stereo not given),inactive: 0
18,CCC1NC(=O)c2cc(S(N)(=O)=O)c(Cl)cc2N1 (stereo not given),inactive: 0
19,Cc1c(OCC(F)(F)F)ccnc1C[S@@+]([O-])c1nc2ccccc2[nH]1,inactive: 0
